Experimental data published in the supplement of paper PMC8551327.
Counter-ions that a name gives are not always drawn. The list shows a part of the results. Cut-off read from the data, not from the text of the source: active = 1.25 or more and inactive = the rest. Many values rest on one well or one pass, so single values are uncertain.

Each molecule was assayed on Kcc2-LUC knock-in mouse primary cortical neurons (Kcc2 promoter reporter) (assay: Kcc2 promoter-driven luciferase activity relative to vehicle control (fold of vehicle (ratio)); higher = stronger Kcc2 promoter activation (Kcc2 expression enhancer)). Settings: 100 nM; 48 h.

Kcc2 promoter-driven luciferase activity, inactive:
N#CC(C#N)=Cc1cccc(Oc2ccccc2)c1 [2-[(3-phenoxyphenyl)methylidene]propanedinitrile] 1.04
Cc1cccc(Cl)c1NC(=O)/C=C/c1ccccc1 [(E)-N-(2-chloro-6-methylphenyl)-3-phenylprop-2-enamide] 1
O=C(CC(O)(C(F)(F)F)C(F)(F)Cl)CC(O)(C(F)(F)F)C(F)(F)Cl (centres undefined) 0.88
Oc1cc2c3c(c1)c1cc4c(cc1c[n+]3CC2)OCO4 [Lycobetaine Chloride] 0.97
COc1cc2c(cc1Oc1ccc(OC)c3c1CC1c4c(cc(OC)c(OC)c4-3)CCN1C)CC1c3c(cc(OC)c(OC)c3-2)CCN1C (centres undefined) 0.01
O=C1c2ccccc2C(=O)C1C(c1ccc([N+](=O)[O-])cc1)C1C(=O)c2ccccc2C1=O 1.04
COC1CN(C)C(=Nc2cccc3ccccc23)S1 (centres undefined) 0.82
CC(C=CC(O)=C1C(=O)CNC1=O)=CC(C)C1OC2(C)OC(C(=O)C3OC32C)C1C (centres undefined) [Tirandamycin] 1.24
CCOC(=O)/C(=C/c1ccc(N(C)C)cc1)N(CC)CC 1.02
C[C@@H]1CC[C@H]2C(C)(C)[C@H]3C[C@@]12CC[C@@]3(C)O [Cedrol] 0.969
C=C(NC(=O)C(=C)NC(=O)c1csc(C2=N[C@@H]3c4csc(n4)C4NC(=O)c5csc(n5)C([C@](C)(O)[C@@H](C)O)NC(=O)[C@H]5CSC(=N5)/C(=C/C)NC(=O)C(C(C)O)NC(=O)c5csc(n5)C3(CC2)NC(=O)[C@H](C)NC(=O)C(=C)NC(=O)C(=C)NC(=O)C(C(C)C)N[C@@H]2C=Cc3c([C@@H](C)O)cc(nc3[C@H]2O)C(=O)OC4C)n1)C(N)=O (some centres undefined) [Siomycin A] 0.98
O=S1(=O)OCCOS(=O)(=O)C1Cc1ccccc1 [3-Benzyl-1,5,2,4-dioxadithiepane 2,2,4,4-tetraoxide] 0.77
CC(C)C1(Cl)CCC2C3(C)CCCC(C)(C(=O)O)C3CC(Cl)C2(Cl)C1Cl (centres undefined) 1
Cc1nn(-c2ccccc2)c2c1CC(=O)Nc1ccccc1-2 0.9
CN(C)C(=S)/N=c1\ss/c(=N\C(=S)N(C)C)n1-c1ccc2c(c1)OCO2 1.03
O=Nc1ccc(O)c2ncccc12 [5-Nitrosoquinolin-8-ol] 0.96
O=C(Nc1ccccc1-c1nn(C(=S)Nc2ccccc2)c(=S)n(C(=S)Nc2ccccc2)c1=O)C(F)(F)F 0.86
OCCOc1ccc(-c2cc(-c3ccccn3)nc(-c3ccccn3)c2)cc1 [2-[4-(2,6-dipyridin-2-ylpyridin-4-yl)phenoxy]ethanol] 0.87
CN(N=O)C(=O)N[C@@H]1[C@@H](O)[C@H](O)[C@@H](CO)O[C@@H]1O [Streptozocin] 0.87
COc1c2occc2cc2ccc(=O)oc12 [Methoxsalen] 0.871
Cc1cc([N+](=O)[O-])ccc1Nc1cccc(Cl)c1C [3-chloro-2-methyl-N-(2-methyl-4-nitrophenyl)aniline] 0.68
C=C1CC[C@@H]2[C@](C)(CO)[C@H](O)CC[C@@]2(C)[C@@H]1C/C=C1/C(=O)OC[C@H]1O [Andrographolide] 1.1
CC1=C/C(=N\OCC(=O)O)CC(c2ccc(C(C)C)cc2)C1 (centres undefined) 0.84
Cc1ccc(S(=O)(=O)ON=C2CC(c3ccccc3)N(C)C(c3ccccc3)C2)cc1 (centres undefined) 0.93
COc1ccc(/C=C2\Cc3ccccc3C2=O)cc1OC [(2E)-2-[(3,4-dimethoxyphenyl)methylidene]-3H-inden-1-one] 0.76
Cc1nc(Nc2ccc(Cl)c(Cl)c2)sc1C(/C=C/c1ccc2c(c1)OCO2)=N/Nc1ccc([N+](=O)[O-])cc1[N+](=O)[O-] 0.84
COc1c2c(cc3c1C1Oc4c(ccc(O)c4CC=C(C)C)C1CO3)OC(C)(C)C=C2 (centres undefined) [Gangetin] 1.13
O=[n+]1c2c(n([O-])c3ccccc31)-c1cccc3cccc-2c13 [Acenaphtho[1,2-b]quinoxaline 7,12-dioxide] 0.97
CN(C)CCCN1c2ccccc2CCc2ccccc21 [Imipramine] 0.43
CC1(c2cccc3ccccc23)OC(=O)c2ccccc21 (centres undefined) [3-Methyl-3-(1-naphthyl)-2-benzofuran-1(3H)-one] 0.56
Cc1nc(N)nc(N)c1-c1ccc(Cl)c(Cl)c1 1.03
CCN1/C(=C\C(C)=C\c2sc3ccccc3[n+]2CC)Sc2ccccc21 [Benzothiazolium,iodide] 1.15

Quoted at random: two entries already listed
Kcc2 promoter-driven luciferase activity, inactive:
O=C(CC(O)(C(F)(F)F)C(F)(F)Cl)CC(O)(C(F)(F)F)C(F)(F)Cl (centres undefined) 0.88
O=S1(=O)OCCOS(=O)(=O)C1Cc1ccccc1 [3-Benzyl-1,5,2,4-dioxadithiepane 2,2,4,4-tetraoxide] 0.77

Following part.

Kcc2 promoter-driven luciferase activity, active:
CO[C@H]1/C=C\C=C(/C)C(=O)NC2=CC(=O)C(N)=C(C[C@@H](C)C[C@H](OC)[C@H](O)[C@@H](C)/C=C(\C)[C@@H]1OC(N)=O)C2=O 2.86
Cc1ccc(Nc2nc(C)c(C(/C=C/c3ccc(/C=C/C(=N\NC(=O)C[n+]4ccccc4)c4sc(Nc5ccc(C)cc5[N+](=O)[O-])nc4C)cc3)=N/NC(=O)C[n+]3ccccc3)s2)c([N+](=O)[O-])c1 1.28
Nc1ccn([C@@H]2O[C@H](CO)[C@@H](O)[C@@H]2O)c(=O)n1 [Cytarabine Hydrochloride] 1.44
COc1ccc2c(=O)oc3c(OC)cc(CCN(C)C)c4c(=O)oc1c2c34 [Thaspine, Acetate] 1.29
Nc1nc(N)c2cc(Sc3cccc(C(F)(F)F)c3)ccc2n1 [2,4-diamino-6-(5-trifluoromethylphenyl)thioquinazoline] 1.28
C/C=C(\CCC1NCCc2c1[nH]c1ccccc21)[Si](C)(C)C (centres undefined) 1.52
CC[C@@]1(O)C[C@H](O[C@H]2C[C@H](N(C)C)[C@H](O[C@H]3C[C@H](O)[C@H](O[C@H]4CCC(=O)[C@H](C)O4)[C@H](C)O3)[C@H](C)O2)c2c(cc3c(c2O)C(=O)c2c(O)cccc2C3=O)[C@H]1C(=O)OC [aclarubicin] 1.49
